Paper PMC10163288
The other results are listed elsewhere or left out.

B1: il2ra_site1_2b5i_sap_8_mot_HHH_b2_01822_000000237_0001_40_54_H_._HHH_b1_03246_0002_0000400018_0000001_0_0001_af2pred_dldesign_0_af2pred (protein)
chain: SSSSSEKEDEIYDLFSEALRLKHQGKKEEAKKLLEEAAKLAKELGNKKLLAEVEYFLKKLSSSSS
B2: il2ra_site2_2erj_sap_22_mot_HHH_b2_08130_000000073_0001_1_17_H_._HHH_b1_02674_0001_0000300003_0000001_0_0001 (protein)
chain: SSSSDVEELLEEIEELLRRGDREEAERLLHEAAELAFERNDFELFTEVVEVAHEIDRLRVSSSSS
B3: il2ra_site2_3nfp_normal_mot_HHH_b1_00660_af2_000000090_0001_40_57_H_._HHH_b1_03317_0001_0000400024_0000001_0_af2pred_0001_af2pred (protein)
chain: SSSSSDEEVREEVEELLEEAKHIEDPEEREKVLRRAALLAYELGDFELFALVLLVIERLRSSSSS
B4: il2ra_site2_3nfp_normal_mot_HHH_b1_00660_af2_000000090_0001_40_57_H_._HHH_b2_02305_af2_0001_0000100001_0000001_0_af2pred_0001_af2pred (protein)
chain: SSSSSEIEEEVEELLEEAKKIDDEEERERVLLKAALIAVEANNYELFALVNRIMERLERNSSSSS
B5: il2ra_site1_3nfp_sap_13_mot_0eddeacbb14b769e73e254714f31e2f9_0001_af2_000000052_0001_37_51_H_._3685a7fc0315cffcf770f862f50b42b9_0001_1_0001_0000400028_0000001_0 … (protein)
chain: SDLEEEVRELIELIKEWAEERNDPTARLFAELLEESARRAEERNDERALRYVLRSARLALRTGSS
B6: il2ra_site2_3nfp_sap_21_mot_HHH_b2_07083_af2_000000083_0001_42_56_H_._HHH_b1_04356_0001_0000200033_0000001_0_0001 (protein)
chain: SDPEHARAALWMAEVYALLHNDEELRETVRELKEELKEAAENNDEEKVERVAEKAAELIEEALES
B7: il2ra_site1_1z92_normal_mot_HHH_b1_01239_000000025_0001_23_39_H_._HHH_b1_03006_0001_0000400024_0000001_0_af2pred_0001_af2pred (protein)
chain: SSSSSDDAEEIAAELFRELARAKDPEEIREVYEEARRELEELNDPVAREDIERYYRAKESSSSSS
B8: il2ra_site1_2b5i_sap_8_mot_HHH_b2_07873_af2_000000005_0001_23_39_H_._HHH_b1_04022_0001_0000300020_0000001_0_0001 (protein)
chain: SSSSDDDELLVEAFIREVEELLKRGDPHRARSILHLARAVVKRLGNEELKEVLEELRKEIESSSS
B9: il2ra_site1_3nfp_normal_mot_HHH_b1_01335_af2_000000258_0001_39_53_H_._HHH_b1_05931_0001_0000500026_0000001_0_af2pred_0001_af2pred_swapped (protein)
chain: SSSSDVREEVEELLEEVEKLLKEGNPEEALRIIREAHKLAVEAGDEEALELVLKFLREVAKSSSS
B10: il2ra_site1_1z92_normal_mot_b1fbee8209167eaadba3689d49187f1a_0001_1_af2_000000019_0001_16_31_H_._2125cc8daba11e8455e4a581cdab7050_0001_af2_0001_0000100007_00000 … (protein)
chain: SAEEDLEQAEEIFGDPEKALKILVLIIADTHKVPPEEAIKRAKEVVRRLGDPELEELLEEIEKRL
B11: il2ra_site1_2b5i_normal_mot_HHH_b1_01419_af2_000000080_0001_42_53_H_._HHH_b1_05324_af2_0001_0000100004_0000001_0_af2pred_0001_af2pred_1 (protein)
chain: SSSSDEFERVFELFLQASRLFANGNPEEAREVVEEAIKLAREGGDEELEEQLEHFLRAIRGSSSS
B12: il2ra_site1_2b5i_sap_22_mot_HHH_b2_01283_af2_000000044_0001_1_16_H_._HHH_b1_00972_af2_0001_0000500028_0000001_0_0001 (protein)
chain: SSSSSDSREAIELFRKADELDRNGNPEEAREVLEQAEEIAEEAGSKSLLIMIRSALRSLDSSSSS
B13: il2ra_site2_2erj_sap_25_mot_HHH_b1_07741_000000192_0001_1_20_H_._8954e390f339e5555f03dd9a05a7d47e_0001_af2_0001_0000500014_0000001_0_0001 (protein)
chain: SSSSDEEEEKLEEFIERLVKELGLSEEQKEELEETLKIALERGVSPELIKRYLELAARDSSSSSS
B14: il2ra_site1_2b5i_sap_14_mot_0bad3e1dd0b580ac51794e340135530b_0001_af2_000000007_0001_1_12_H_._HHH_b2_03528_0001_0000500033_0000001_0_0001_af2pred_dldesign_0_af2 … (protein)
chain: SSSSDVEEQVEALLEEARRRKAAGEPLLARQLLTLARRLARKHKDPELIARVERVAAELGSSSSS
B15: il2ra_site1_3nfp_sap_11_mot_HHH_b2_05589_af2_000000060_0001_42_57_H_._HHH_b1_01268_0001_0000300020_0000001_0_0001_af2pred_0001_af2pred (protein)
chain: DELATELLRIAAEKNSELLLEKIVRDVLSRAGDPEEARKILEKLAELAGVPPEVEEKLEELLERR
B16: il2ra_site1_1z92_normal_mot_HHH_b2_05734_000000004_0001_1_18_H_._ad81070c4fcd12ba5f163adb410dbfa5_0001_af2_0001_0000200011_0000001_0_af2pred_0001_af2pred_1 (protein)
chain: SLEEELRRILKEAGLPPRQIEFLLRFAERRAGGDPREIIELLIRFLERSGDPEIAEELEKLLERT
B17: il2ra_site2_2erj_sap_14_mot_ems_3hC_936_0002_000000155_0001_4_19_H_._HHH_b1_05540_0001_0000300003_0000001_0_0001 (protein)
chain: SSSSSEELHRLYELANALLKLLTEGDEEEVEKVLKELEELAERADSPVAREIVESVRRKLSSSSS
B18: il2ra_site2_2erj_normal_mot_HHH_b1_03609_af2_000000077_0001_42_55_H_._HHH_b1_01470_af2_0002_0000600021_0000001_0 (protein)
chain: SSSSSEEVERLLKEAEELIERGNPEEAEEVLRRASELAFRLNDFELWSQISELLRELARLESSSS
B19: il2ra_site2_3nfp_sap_19_mot_HHH_b1_06158_af2_000000274_0001_1_17_H_._HHH_b1_07117_af2_0001_0000400020_0000001_0_0001 (protein)
chain: SSSSDVEELLREVEELLERGNLYEAAQVLMEASELAAKLGDPELARAVLELFKLLAERSRKSSSS

Each binder was assayed against il2ra, P01589 (assay: yeast display titration).

Apparent Kd, inactive:
B1 no binding seen
B2 no binding seen
B3 no binding seen
B4 no binding seen
B5 no binding seen
B6 no binding seen
B7 no binding seen
B8 no binding seen
B9 no binding seen
B10 no binding seen
B11 no binding seen
B12 no binding seen
B13 no binding seen
B14 no binding seen
B15 no binding seen
B16 > 279 nM
B17 no binding seen
B18 no binding seen
B19 no binding seen

Pulled one by one from the list above (2):
Apparent Kd, inactive:
B4 no binding seen
B7 no binding seen
